Laboratory results reported in patent US6670383B2, “Pyranocoumarin compounds as a novel pharmacophore with anti-TB activity” (priority 2001, dated 2003).

Experiment: IC50 of Table 2 (used for SI = IC50/MIC; test not described)
Settings: MIC against strain H37Rv

Molecule | SI (IC50/MIC)
CCCc1cc(=O)oc2c3c(c4c(c12)OC(C)(C)C=C4)O[C@@H](C)[C@H](C)[C@H]3O [(−)-Calanolide A (2), (−)-Calanolide A] | >1.6
(+)-Calanolide A [(+)-Calanolide A (1)] | 2.43
